Data: patent publication US8637470B2, “Small humanin-like peptides” (The Regents of the University of California, priority 2008, dated 2014)
At least one peptide structure holds a part that was inferred or is arguable (an end, a ring closure or a residue). Where no end group is shown, it is not given here.

Experiments:
22RV1 cells = test: Cancer PathwayFinder PCR array gene expression in 22RV1 cells; type: cell-based, human; details: 22RV1, 1 μM
cell signaling proteins = test: Kinexus antibody microarray of cell lysates; type: cell-based; details: 1 μM, 2 h

## MLDQDIPMVQPLLKVRLFND [SHLP6]
22RV1 cells; gene Apaf-1
  Fold-Change in Expression: +3 fold
22RV1 cells; gene BAX
  Fold-Change in Expression: +2 fold
22RV1 cells; gene Bcl-2
  Fold-Change in Expression: +5.5 fold
22RV1 cells; gene Bcl-x
  Fold-Change in Expression: +49 fold
22RV1 cells; gene COL18A1
  Fold-Change in Expression: +2 fold
22RV1 cells; gene IFNA1 (IFNα)
  Fold-Change in Expression: +2.5 fold
22RV1 cells; gene Integrin α1
  Fold-Change in Expression: +2.5 fold
22RV1 cells; gene Integrin α2
  Fold-Change in Expression: +4 fold
22RV1 cells; gene Integrin α3
  Fold-Change in Expression: +2 fold
22RV1 cells; gene NME1
  Fold-Change in Expression: +2.5 fold
22RV1 cells; gene NME4
  Fold-Change in Expression: +4 fold
22RV1 cells; gene PI3-kinase p85α
  Fold-Change in Expression: +4 fold
22RV1 cells; gene TIMP1
  Fold-Change in Expression: +2 fold
22RV1 cells; gene VEGF-A
  Fold-Change in Expression: −70 fold
Cell signaling proteins; protein Caldesmon
  Fold Change: 2.35 fold
Cell signaling proteins; protein EGFR
  Fold Change: 0.55 fold
Cell signaling proteins; protein ERP72
  Fold Change: 3.92 fold
Cell signaling proteins; protein STAT5A Y694
  Fold Change: 0.34 fold
Cell signaling proteins; protein STAT6
  Fold Change: 0.40 fold
Cell signaling proteins; protein pRb
  Fold Change: 1.45 fold
